These results are taken from patent US20230192896A1.

Amino acid sequences for entries named in this document (tags omitted). A change or cut given only in a name is not applied to a line headed by its entry.
UniProt P00742: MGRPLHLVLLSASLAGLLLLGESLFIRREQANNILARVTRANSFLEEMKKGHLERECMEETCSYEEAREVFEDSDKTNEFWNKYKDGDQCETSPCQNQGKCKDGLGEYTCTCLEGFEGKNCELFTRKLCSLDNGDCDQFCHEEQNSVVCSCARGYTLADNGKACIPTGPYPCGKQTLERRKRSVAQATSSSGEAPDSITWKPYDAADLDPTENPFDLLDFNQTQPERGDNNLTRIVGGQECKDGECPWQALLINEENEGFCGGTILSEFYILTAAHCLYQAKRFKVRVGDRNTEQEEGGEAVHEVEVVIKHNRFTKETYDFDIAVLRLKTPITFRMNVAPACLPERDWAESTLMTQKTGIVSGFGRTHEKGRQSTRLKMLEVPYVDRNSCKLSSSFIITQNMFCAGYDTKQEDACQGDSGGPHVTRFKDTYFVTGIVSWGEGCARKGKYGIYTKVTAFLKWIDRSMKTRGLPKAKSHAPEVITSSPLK

In the assay the target is FX zymogen (Homo sapiens (Human)) (UniProt P00742). The assay can be described thus: BLI, antibody on AHQ sensor, 250 nM FX variant.

Results are given in words; binding and its absence hold for the method and conditions named. Some results given as binding are weak or reduced against the parent protein; the word gives no strength.

B1: BIIB-12-917 (antibody, V domains shown)
VH: EVQLVQSGAEVKKPGESLKISCKGSGYSFTTYWIGWVRQMPGKGLEWMGIIYPGDSDTRYSPSFQGQVTISADKSISTAYLQWSSLKASDTAMYYCARGRFRPRGRFDYWGQGTLVTVSS
VL: EIVMTQSPATLSVSPGERATLSCRASQSVSSNLAWYQQKPGQAPRLLIYGASTRATGIPARFSGSGSGTEFTLTISSLQSEDFAVYYCQQLFNHPPTFGGGTKVEIK
On to B1, for which the binding entry is “binds”.
